Reference: the supplement of paper PMC10849652
This is one part of the list.

Amino acid sequences for entries named in this document (tags omitted). A change or cut given only in a name is not applied to a line headed by its entry.
UniProt Q86WA8: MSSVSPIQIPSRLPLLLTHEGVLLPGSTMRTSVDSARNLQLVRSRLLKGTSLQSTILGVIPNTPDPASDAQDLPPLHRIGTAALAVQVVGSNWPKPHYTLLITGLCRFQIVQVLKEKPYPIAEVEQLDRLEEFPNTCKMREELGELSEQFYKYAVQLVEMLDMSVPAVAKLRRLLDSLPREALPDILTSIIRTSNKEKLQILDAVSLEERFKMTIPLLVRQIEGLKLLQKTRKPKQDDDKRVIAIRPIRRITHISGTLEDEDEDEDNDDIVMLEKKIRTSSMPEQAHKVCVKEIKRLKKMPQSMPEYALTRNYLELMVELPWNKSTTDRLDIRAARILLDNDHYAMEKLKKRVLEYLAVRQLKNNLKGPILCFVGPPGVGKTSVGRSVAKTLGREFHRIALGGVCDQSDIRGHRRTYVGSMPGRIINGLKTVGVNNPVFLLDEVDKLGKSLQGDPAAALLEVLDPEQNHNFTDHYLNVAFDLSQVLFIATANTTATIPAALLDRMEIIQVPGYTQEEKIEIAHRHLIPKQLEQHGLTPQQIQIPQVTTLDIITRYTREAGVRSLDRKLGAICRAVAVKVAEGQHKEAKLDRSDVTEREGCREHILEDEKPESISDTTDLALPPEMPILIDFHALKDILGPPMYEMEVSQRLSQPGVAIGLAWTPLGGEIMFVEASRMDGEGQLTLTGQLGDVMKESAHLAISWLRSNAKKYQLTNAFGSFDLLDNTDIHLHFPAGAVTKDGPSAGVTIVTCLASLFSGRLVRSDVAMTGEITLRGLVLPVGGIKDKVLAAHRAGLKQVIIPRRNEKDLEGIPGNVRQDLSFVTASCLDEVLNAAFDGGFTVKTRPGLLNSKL
UniProt Q71RC2, whole entry, looked up: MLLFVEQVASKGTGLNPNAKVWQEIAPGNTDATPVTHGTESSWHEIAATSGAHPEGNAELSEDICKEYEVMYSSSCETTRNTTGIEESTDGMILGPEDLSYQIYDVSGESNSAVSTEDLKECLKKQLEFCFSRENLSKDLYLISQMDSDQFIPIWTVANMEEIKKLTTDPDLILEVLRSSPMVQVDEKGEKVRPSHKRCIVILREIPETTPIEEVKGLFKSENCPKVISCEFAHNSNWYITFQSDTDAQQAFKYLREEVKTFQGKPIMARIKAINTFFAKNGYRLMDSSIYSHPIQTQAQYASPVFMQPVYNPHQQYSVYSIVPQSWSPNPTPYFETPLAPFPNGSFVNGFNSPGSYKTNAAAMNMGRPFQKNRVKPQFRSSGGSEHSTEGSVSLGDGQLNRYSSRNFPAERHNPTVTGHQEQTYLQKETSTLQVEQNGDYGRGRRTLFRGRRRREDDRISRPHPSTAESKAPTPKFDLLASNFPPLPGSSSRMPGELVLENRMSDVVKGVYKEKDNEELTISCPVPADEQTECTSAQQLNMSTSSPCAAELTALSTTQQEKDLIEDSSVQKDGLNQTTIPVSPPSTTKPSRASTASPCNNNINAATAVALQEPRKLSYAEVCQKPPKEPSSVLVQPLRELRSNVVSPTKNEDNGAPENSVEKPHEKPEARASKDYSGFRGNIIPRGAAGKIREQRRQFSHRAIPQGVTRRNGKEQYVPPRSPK
UniProt Q96PV6, whole entry, looked up: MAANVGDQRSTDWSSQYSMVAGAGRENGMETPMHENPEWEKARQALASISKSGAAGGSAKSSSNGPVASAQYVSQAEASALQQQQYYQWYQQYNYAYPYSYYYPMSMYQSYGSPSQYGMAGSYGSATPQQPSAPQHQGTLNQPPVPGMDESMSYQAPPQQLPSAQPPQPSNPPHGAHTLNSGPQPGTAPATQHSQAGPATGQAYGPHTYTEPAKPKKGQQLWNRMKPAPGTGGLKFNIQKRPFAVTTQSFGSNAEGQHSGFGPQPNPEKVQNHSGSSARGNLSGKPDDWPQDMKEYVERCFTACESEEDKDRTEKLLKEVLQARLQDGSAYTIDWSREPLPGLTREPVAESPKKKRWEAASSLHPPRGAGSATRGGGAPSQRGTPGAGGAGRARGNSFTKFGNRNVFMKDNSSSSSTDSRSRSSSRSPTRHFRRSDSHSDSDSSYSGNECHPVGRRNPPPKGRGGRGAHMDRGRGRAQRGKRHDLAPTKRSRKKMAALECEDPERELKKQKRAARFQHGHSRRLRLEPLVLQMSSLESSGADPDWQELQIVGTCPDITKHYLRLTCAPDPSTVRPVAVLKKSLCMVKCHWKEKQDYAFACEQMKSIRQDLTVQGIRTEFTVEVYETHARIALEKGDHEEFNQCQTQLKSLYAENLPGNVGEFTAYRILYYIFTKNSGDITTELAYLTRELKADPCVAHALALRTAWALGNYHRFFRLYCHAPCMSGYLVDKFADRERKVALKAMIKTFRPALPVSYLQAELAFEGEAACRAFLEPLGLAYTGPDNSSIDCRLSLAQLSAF
UniProt P49917: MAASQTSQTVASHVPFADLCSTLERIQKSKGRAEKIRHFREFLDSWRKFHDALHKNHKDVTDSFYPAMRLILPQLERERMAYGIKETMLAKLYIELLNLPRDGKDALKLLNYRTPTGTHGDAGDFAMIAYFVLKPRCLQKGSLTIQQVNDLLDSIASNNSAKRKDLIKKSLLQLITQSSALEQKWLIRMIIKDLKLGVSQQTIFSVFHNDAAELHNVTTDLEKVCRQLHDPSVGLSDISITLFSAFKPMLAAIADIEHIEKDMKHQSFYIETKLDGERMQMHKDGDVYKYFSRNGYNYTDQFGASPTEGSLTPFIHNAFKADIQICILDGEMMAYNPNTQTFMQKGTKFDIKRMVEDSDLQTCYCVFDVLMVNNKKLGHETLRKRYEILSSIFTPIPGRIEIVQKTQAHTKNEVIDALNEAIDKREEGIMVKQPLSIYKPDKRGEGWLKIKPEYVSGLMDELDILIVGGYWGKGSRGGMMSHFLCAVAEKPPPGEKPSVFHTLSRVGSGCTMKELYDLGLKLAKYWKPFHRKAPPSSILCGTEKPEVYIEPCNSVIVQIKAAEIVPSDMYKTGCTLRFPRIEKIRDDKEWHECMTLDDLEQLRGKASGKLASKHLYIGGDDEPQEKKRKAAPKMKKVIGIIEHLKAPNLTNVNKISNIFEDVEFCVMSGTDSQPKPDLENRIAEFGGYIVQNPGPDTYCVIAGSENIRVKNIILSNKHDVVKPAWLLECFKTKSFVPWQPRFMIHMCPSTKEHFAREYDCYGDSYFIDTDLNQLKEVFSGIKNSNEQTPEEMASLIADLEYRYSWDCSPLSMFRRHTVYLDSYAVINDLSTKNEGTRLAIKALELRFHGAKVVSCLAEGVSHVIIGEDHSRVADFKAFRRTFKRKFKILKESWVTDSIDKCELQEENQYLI
UniProt O43766: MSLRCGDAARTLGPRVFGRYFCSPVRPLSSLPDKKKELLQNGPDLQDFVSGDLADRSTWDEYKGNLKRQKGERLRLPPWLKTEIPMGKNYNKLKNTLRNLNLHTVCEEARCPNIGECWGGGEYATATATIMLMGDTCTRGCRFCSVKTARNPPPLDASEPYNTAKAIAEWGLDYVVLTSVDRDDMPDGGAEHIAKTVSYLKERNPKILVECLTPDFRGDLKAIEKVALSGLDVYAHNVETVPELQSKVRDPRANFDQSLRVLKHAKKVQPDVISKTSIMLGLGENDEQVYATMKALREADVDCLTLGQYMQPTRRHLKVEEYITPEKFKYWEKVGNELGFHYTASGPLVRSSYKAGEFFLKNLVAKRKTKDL
UniProt Q9C0E8: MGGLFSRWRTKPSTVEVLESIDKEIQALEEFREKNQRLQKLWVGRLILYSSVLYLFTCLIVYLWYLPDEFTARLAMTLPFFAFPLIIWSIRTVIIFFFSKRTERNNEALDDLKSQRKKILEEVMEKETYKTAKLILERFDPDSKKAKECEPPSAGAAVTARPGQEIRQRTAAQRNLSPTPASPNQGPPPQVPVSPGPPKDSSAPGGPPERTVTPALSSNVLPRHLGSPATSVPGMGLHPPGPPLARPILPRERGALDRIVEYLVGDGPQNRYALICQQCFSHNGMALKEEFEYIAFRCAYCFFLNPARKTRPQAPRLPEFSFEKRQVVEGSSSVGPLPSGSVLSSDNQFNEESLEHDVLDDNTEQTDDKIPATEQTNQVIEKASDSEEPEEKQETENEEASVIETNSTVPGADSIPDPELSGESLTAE
UniProt Q9UGP4: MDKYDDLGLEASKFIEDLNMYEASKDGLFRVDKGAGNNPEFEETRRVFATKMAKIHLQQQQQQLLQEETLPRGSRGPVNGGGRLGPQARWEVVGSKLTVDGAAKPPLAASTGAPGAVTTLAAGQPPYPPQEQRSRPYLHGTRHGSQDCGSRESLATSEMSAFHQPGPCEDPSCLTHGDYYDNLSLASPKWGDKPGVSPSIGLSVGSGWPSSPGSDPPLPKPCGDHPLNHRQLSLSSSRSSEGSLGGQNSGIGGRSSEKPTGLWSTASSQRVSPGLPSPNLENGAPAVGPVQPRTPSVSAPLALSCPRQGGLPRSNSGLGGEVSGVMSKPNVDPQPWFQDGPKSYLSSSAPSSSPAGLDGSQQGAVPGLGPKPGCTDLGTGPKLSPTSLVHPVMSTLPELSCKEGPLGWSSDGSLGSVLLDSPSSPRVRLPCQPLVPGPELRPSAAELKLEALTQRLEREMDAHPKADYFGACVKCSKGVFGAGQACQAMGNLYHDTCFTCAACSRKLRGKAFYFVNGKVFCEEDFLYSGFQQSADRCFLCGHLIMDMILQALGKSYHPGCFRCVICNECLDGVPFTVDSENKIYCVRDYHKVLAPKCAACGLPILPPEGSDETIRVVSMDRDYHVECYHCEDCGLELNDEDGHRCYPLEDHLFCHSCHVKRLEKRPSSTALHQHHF
UniProt Q14739: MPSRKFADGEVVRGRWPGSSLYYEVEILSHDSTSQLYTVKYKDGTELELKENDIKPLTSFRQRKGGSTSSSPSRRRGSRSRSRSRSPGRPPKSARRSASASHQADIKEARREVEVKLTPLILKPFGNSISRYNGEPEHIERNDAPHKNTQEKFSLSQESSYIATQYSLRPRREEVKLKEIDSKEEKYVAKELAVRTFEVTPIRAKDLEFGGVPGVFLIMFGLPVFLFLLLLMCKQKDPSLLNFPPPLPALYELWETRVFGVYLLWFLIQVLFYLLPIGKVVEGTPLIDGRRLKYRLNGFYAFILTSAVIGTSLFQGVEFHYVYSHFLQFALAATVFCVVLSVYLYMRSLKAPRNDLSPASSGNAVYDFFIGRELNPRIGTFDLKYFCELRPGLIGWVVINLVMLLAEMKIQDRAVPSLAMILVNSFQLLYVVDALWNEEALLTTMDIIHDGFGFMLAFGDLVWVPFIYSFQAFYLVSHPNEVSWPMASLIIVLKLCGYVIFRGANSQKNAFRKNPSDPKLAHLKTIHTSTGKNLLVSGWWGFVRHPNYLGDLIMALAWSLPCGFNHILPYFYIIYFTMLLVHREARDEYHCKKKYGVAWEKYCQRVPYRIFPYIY
UniProt Q9UIQ6, whole entry, looked up: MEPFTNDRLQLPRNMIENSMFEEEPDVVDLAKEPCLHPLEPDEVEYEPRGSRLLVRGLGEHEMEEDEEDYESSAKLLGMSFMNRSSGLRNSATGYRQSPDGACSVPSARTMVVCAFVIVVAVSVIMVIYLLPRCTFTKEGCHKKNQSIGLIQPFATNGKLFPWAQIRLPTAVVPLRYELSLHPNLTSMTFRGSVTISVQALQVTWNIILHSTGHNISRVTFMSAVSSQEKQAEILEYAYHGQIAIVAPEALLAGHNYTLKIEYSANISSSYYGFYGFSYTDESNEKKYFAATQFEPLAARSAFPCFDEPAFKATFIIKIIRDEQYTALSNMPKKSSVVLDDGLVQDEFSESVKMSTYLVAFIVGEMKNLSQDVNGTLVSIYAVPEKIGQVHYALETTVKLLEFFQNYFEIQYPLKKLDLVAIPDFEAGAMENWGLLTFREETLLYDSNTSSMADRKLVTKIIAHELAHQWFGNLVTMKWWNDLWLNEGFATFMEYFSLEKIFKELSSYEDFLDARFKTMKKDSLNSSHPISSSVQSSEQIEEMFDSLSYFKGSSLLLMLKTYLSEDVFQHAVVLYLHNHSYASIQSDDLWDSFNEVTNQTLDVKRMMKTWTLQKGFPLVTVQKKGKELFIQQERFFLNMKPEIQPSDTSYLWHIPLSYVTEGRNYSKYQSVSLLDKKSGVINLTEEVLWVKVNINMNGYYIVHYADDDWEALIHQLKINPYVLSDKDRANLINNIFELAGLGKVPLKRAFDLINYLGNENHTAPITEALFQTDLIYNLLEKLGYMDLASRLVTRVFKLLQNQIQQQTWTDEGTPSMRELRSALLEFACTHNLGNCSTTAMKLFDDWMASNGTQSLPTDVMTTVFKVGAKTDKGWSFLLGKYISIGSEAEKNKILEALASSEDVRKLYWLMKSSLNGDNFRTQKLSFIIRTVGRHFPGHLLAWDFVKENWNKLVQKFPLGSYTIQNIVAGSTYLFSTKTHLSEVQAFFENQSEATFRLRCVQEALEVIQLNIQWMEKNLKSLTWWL

Key:
Experiment in all cases: log2 fold change, soluble protein after heating vs DMSO (PISA); higher = thermal stabilisation; K562 cells, 10 uM, 30 min; active = over 0.2 and 3.5 SD of the protein, either way, in both replicates (recomputed)
saracatinib = compound: CN1CCN(CCOc2cc(OC3CCOCC3)c3c(Nc4c(Cl)ccc5c4OCO5)ncnc3c2)CC1 [saracatinib]
Outline: (§1)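 K562 cells (2×10^6 cells/mL) were treated with 10 μM compound for 30 min, and aliquots were heated for 3 min over 48°C-58°C. Pooled aliquots were extracted in PBS with 0.5% NP-40 at 4°C, and the supernatant after 21,000xg for 90 min was measured by TMTpro 16plex LC-MS/MS with channel sums equalised. Reported thermal stability, relative to control samples and from duplicates, is a log2 fold change.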

sotrastaurin = compound: CN1CCN(c2nc(C3=C(c4c[nH]c5ccccc45)C(=O)NC3=O)c3ccccc3n2)CC1 [sotrastaurin]
Outline: as §1

Tubastatin A = compound: CN1CCc2c(c3ccccc3n2Cc2ccc(C(=O)NO)cc2)C1 [Tubastatin A]
Outline: as §1

[1] = compound: CNC(=O)C1=CC=CC=C1NC2=NC(=NC=C2Cl)NC3=C(C=C(C=C3)N4CCOCC4)OC
Outline: as §1

defactinib = compound: CNC(=O)c1ccc(Nc2ncc(C(F)(F)F)c(NCc3nccnc3N(C)S(C)(=O)=O)n2)cc1 [defactinib]
Outline: as §1

rucaparib = compound: CNCc1ccc(-c2[nH]c3cc(F)cc4c3c2CCNC4=O)cc1 [rucaparib]
Outline: as §1

[2] = compound: CNc1nc(-c2ccc3c(N)n[nH]c3c2)cc(N2C[C@@H](C(=O)NC3CCCCC3)CC[C@H]2C)n1
Outline: as §1

encorafenib = compound: COC(=O)N[C@@H](C)CNc1nccc(-c2cn(C(C)C)nc2-c2cc(Cl)cc(NS(C)(=O)=O)c2F)n1 [encorafenib]
Outline: as §1

[3] = compound: COC(=O)[C@H](CCSC)NC(=O)C1=C(C=C(C=C1)NC[C@H](CS)N)C2=CC=CC=C2
Outline: as §1

alvocidib = compound: CN1CC[C@H](c2c(O)cc(O)c3c(=O)cc(-c4ccccc4Cl)oc23)[C@H](O)C1 [alvocidib]
Outline: as §1

Measured: log2 fold change

LONP2 (UniProt Q86WA8)
inactive: saracatinib 0.006 | sotrastaurin 0.003 | Tubastatin A 0.135 | [1] 0 | defactinib -0.12 | rucaparib 0.067 | [2] -0.079 | encorafenib 0.13 | [3] 0.007

LARP4 isoform 4 (UniProt Q71RC2)
inactive: saracatinib -0.066 | sotrastaurin -0.051 | Tubastatin A 0.041 | [1] 0.047 | defactinib -0.036 | rucaparib 0.257 | [2] 0.059 | encorafenib 0.086 | [3] -0.014

LENG8 (UniProt Q96PV6)
inactive: saracatinib -0.112 | sotrastaurin -0.043 | Tubastatin A -0.021 | [1] -0.125 | defactinib -0.316 | rucaparib 0.044 | [2] 0.133 | encorafenib 0.129 | [3] -0.133

LIG4 (UniProt P49917)
inactive: saracatinib -0.163 | sotrastaurin -0.137 | defactinib -0.214 | rucaparib 0.198 | [2] 0.168 | encorafenib 0.251 | [3] -0.241

LIAS (UniProt O43766)
inactive: saracatinib 0.049 | Tubastatin A -0.056 | [1] 0.029 | defactinib 0.018 | rucaparib 0.017 | [2] -0.027 | encorafenib 0 | [3] 0.022
active: sotrastaurin 0.271

LNPK (UniProt Q9C0E8)
inactive: saracatinib 0.085 | sotrastaurin 0.047 | Tubastatin A -0.034 | [1] 0.012 | defactinib 0.009 | rucaparib -0.015 | [2] -0.045 | encorafenib -0.013 | [3] 0.039

LIMD1 (UniProt Q9UGP4)
inactive: saracatinib 0.074 | sotrastaurin -0.011 | Tubastatin A -0.034 | [1] -0.029 | defactinib -0.03 | rucaparib -0.008 | [2] -0.01 | encorafenib 0.004 | [3] 0.004

LPIN1 isoform 7 (UniProt Q14693)
inactive: saracatinib 0.003 | sotrastaurin -0.093 | Tubastatin A 0.041 | [1] -0.113 | defactinib -0.03 | rucaparib -0.054 | [2] -0.13 | encorafenib 0.009 | [3] 0.035

LBR (UniProt Q14739)
inactive: saracatinib 0.008 | sotrastaurin 0.036 | Tubastatin A -0.008 | [1] -0.02 | defactinib -0.022 | rucaparib 0.164 | [2] 0.116 | encorafenib 0.058 | [3] -0.089

LRP5 (UniProt O75197)
inactive: saracatinib -0.1 | alvocidib 0.136 | Tubastatin A -0.172 | defactinib 0.08 | [2] -0.107 | [3] -0.023

LAMA5 (UniProt O15230)
inactive: saracatinib -0.114 | alvocidib 0.051 | Tubastatin A 0.126 | [1] -0.186 | defactinib 0.194 | [2] 0.099 | [3] 0.102

LNPEP (UniProt Q9UIQ6)
inactive: saracatinib 0.048 | sotrastaurin 0.037 | Tubastatin A -0.001 | [1] -0.01 | defactinib -0.054 | rucaparib -0.014 | [2] -0.02 | encorafenib -0.008 | [3] 0.012

Taken from the results shown (2 entries):
LIAS (UniProt O43766)
inactive: saracatinib 0.049 | Tubastatin A -0.056 | [1] 0.029 | defactinib 0.018 | rucaparib 0.017 | [2] -0.027 | encorafenib 0 | [3] 0.022
active: sotrastaurin 0.271

LNPK (UniProt Q9C0E8)
inactive: saracatinib 0.085 | sotrastaurin 0.047 | Tubastatin A -0.034 | [1] 0.012 | defactinib 0.009 | rucaparib -0.015 | [2] -0.045 | encorafenib -0.013 | [3] 0.039
